In PubChem BioAssay AID2685 (National Center for Advancing Translational Sciences (NCATS), 2010):
The list shows a part of the results. Shown are side measurements of this screen, not its main read-out; they come without a call. Most of these compounds were active or inconclusive in the main read-out, so they are no random draw. Words in brackets tell the shape of the fitted curve; partial curves, single points and poor fits give uncertain potencies.

Experiment: qHTS Assay for Lipid Storage Modulators in Drosophila S3 Cells;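 on cell number change: cells counted by Cell Tracker Red CMTPX staining in the red channel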
Conditions: BODIPY lipid droplet fluorescence, 18-24 h; for cell number change: measured here: cell count max response, cells fed with added oleic acid
Summary of the method: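 Drosophila S3 cells loaded with oleic acid (400 uM, as added) and compounds at several concentrations; lipid droplets imaged by 488-nm laser-scanning cytometry, 500–530 nm intensity and object ratio to cell channel. Percent activity normalized to 20 uM Triacsin C.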

[1] = measured here: cell number channel AC50, cells fed with added oleic acid
[2] = measured here: lipid fluorescence (Fed channel) AC50, cells fed with added oleic acid

Compound	cell number change	AC50 [1]	AC50 [2]
CN(C)CCCn1c(SCC(=O)Nc2sc3c(c2C#N)CCCC3)nnc1-c1ccncc1	60.4%	29.1 µM [rising, single point]	
O=S(=O)(c1ccc(N=C2NN=C(c3cc(F)ccc3F)CS2)cc1)N1CCOCC1	-7.23%		0.651 µM [rising, partial curve, poor fit]
CC(C)(C)c1cc(Br)ccc1OCC(=O)Nc1ncn[nH]1		6.51 µM [rising, partial curve, poor fit]	2.31 µM [rising, partial curve]
Cc1ccc(F)cc1NC(=O)CN1C(=O)NC(C)(c2ccc3c(c2)OCCO3)C1=O (stereo not given)	-5.04%		
O=C(N/N=C\c1ccc(S(=O)(=O)O)o1)c1ccc2c(c1)OCO2	2.38%		0.58 µM [rising, single point]
C=CCc1cccc2cc(C(=O)Nc3ccc(CC(=O)O)cc3)c(=O)oc12	12.8%	2.31 µM [rising, partial curve, poor fit]	2.31 µM [rising, partial curve, poor fit]
O=C1COc2ccccc2N1Cc1ccc(Cl)cc1	-20.2%		
NC(=O)c1ncc(C(F)(F)F)cc1Cl	33.4%	14.6 µM [rising, single point]	29.1 µM [rising, single point]
CCOC(=O)c1c(NC(=O)CSc2nnc(-c3cccnc3)n2Cc2ccco2)sc(C)c1C	-18%		0.092 µM [rising, full curve, poor fit]
CC(C)CSc1nnc2c3ccccc3n(C)c2n1	8.8%		29.1 µM [falling, single point]
N#CC1=CN(Cc2ccccc2)C=C(/C=N/Nc2ccccc2)C1	-20.3%	0.0082 µM [falling, full curve, poor fit]	
CCOC(=O)c1c(C)[nH]c(C)c1C(=O)CSc1nc2ccccc2c(=O)n1-c1ccc(C)cc1	8.75%		0.13 µM [rising, full curve]
COc1ccc(CCNC(=O)CSc2nnc(-c3cccc(C)c3)o2)cc1OC	-18.8%		
Cc1ccc(OCC(=O)Nc2ccc(-c3nc4ncccc4o3)cc2)cc1	1.98%		2.59 µM [rising, single point]
COc1cccc2cc(C(=O)Nc3cc(Cl)ccc3N3CCOCC3)c(=O)oc12	6.16%		1.03 µM [falling, full curve, poor fit]
CC12CCC(=O)N1C(C(=O)OCC(=O)Nc1ccc(S(N)(=O)=O)cc1)CS2 (stereo not given)	12%	0.00411 µM [rising, full curve, poor fit]	
O=C(COC(=O)c1ccccc1Br)NCCN1C(=O)CSC1=O		6.51 µM [falling, single point]	
CCC1=NN2C(=N)/C(=C\c3ccc(OCCOc4ccccc4)c(OC)c3)C(=O)N=C2S1	14.7%		29.1 µM [rising, single point]
O=C1CC(N2CCN(c3ccc(F)cc3)CC2)C(=O)N1c1ccccc1 (stereo not given)	18.7%		14.6 µM [rising, single point]
COc1ccc(-c2csc(NC(=O)CSc3nnnn3C)n2)cc1OC	2.12%		0.082 µM [rising, full curve, poor fit]
O=C(Nc1ccc2c(c1)OCO2)C1CCN(C(=O)c2ccc([N+](=O)[O-])cc2)CC1	35.7%		

Some of these compounds in order of SMILES length, smallest number first.
Compound	cell number change	AC50 [1]	AC50 [2]
COc1ccc(CCNC(=O)CSc2nnc(-c3cccc(C)c3)o2)cc1OC	-18.8%		
COc1cccc2cc(C(=O)Nc3cc(Cl)ccc3N3CCOCC3)c(=O)oc12	6.16%		1.03 µM [falling, full curve, poor fit]
Cc1ccc(F)cc1NC(=O)CN1C(=O)NC(C)(c2ccc3c(c2)OCCO3)C1=O (stereo not given)	-5.04%		

Later entries.

Compound	cell number change	AC50 [1]	AC50 [2]
Cn1c(Cl)cnc1C1CC(=O)c2cc(Cl)ccc2O1 (stereo not given)	-138%	29.1 µM [falling, single point]	29.1 µM [falling, single point]
O=C(NCc1ccccn1)c1ccc(OC2CCN(Cc3ccc(F)cc3F)CC2)cc1	16.8%		6.51 µM [rising, single point]
O=C(CCc1nnc(C2(c3ccc(Cl)cc3)CCC2)o1)N1CCCC(O)C1 (stereo not given)	15.2%	1.16 µM [rising, full curve, poor fit]	
COc1ccc(N2CCN(C(=O)c3ccc(CS(=O)(=O)c4ccccc4C)o3)CC2)cc1	-0.288%		
CC(=O)N1CCN(c2ccc(NC(=O)c3ccccc3Cl)cc2)CC1	-10.2%		
COc1ccc(NC(=O)C2CCCN2S(=O)(=O)c2ccc(Cl)cc2)cc1 (stereo not given)	28.6%		
CC1CN(C(=O)c2ccc(S(=O)(=O)Nc3ccccc3Cl)cc2)CC(C)O1 (stereo not given)	22.2%		22.4 µM [rising, single point]
COC(=O)CSc1nnc(-c2ccc(S(=O)(=O)N3CCCCC3)cc2)o1	-27%		4.11 µM [falling, full curve]
CC(C)(C#N)NC(=O)c1ccco1	-7.78%		1.46 µM [falling, full curve]
COc1ccccc1C(=O)N/C(=C/c1ccc2c(c1)OCO2)C(=O)Nc1ccc(C(=O)O)cc1	9.17%		
O=C(CCCN1C(=O)c2cccc3cccc(c23)C1=O)Nc1ccon1	-16%		0.82 µM [falling, full curve, poor fit]
CNC(=O)/C(C#N)=C\c1ccc(CNS(=O)(=O)c2ccccc2)o1	3.13%		1.16 µM [falling, single point]
CCCn1nnc(NC(=O)c2ccco2)n1	-17.1%		1.03 µM [falling, full curve, poor fit]
O=C(COc1ccc(Cl)cc1Cl)NN1C(=O)C2C3C=CC([C@@H]2C1=O)C31CC1 (stereo not given in full)	7.66%		29.1 µM [rising, single point]
Cc1ccc(C(=O)OCC(=O)Nc2ccc(Cl)cn2)cc1S(=O)(=O)N1CCOCC1	-15.3%		
Cc1cccc2c(C(=O)N3CCN(c4ccccc4)CC3)cc(-c3ccncc3)nc12	-31%	20.6 µM [falling, single point]	
CC1CCc2nc(NCCO)nc(C(F)(F)F)c2C1 (stereo not given)	7.27%		
CCCSc1ccccc1C(=O)N1CCN(C(=O)c2ccco2)CC1	-3.76%		29.1 µM [falling, single point]
CC1CCC(NC(=O)c2nn(C)c3c2CSc2ccccc2-3)CC1 (stereo not given)	23.8%		29.1 µM [falling, single point]
Cc1cccc(OCCCCCn2ccnc2)c1			29.1 µM [falling, single point]
COc1ccc(CN(C)CC2CCCN(CCc3ccc(F)cc3)C2)cc1OC (stereo not given)	-13.2%		6.51 µM [falling, single point]

Compound	cell number change	AC50 [1]	AC50 [2]
Cc1ccccc1NC(=O)CCN1CCN(CCO)CC1	-0.549%		0.92 µM [falling, full curve, poor fit]
Cc1c(Cl)cccc1NC(=O)COC(=O)c1ccc(CN2CCCC2=O)cc1	-11.6%	1.03 µM [rising, single point]	5.17 µM [rising, single point]
Cc1ccc(S(=O)(=O)Nc2ccccc2C=Nc2cccc(C)c2C)cc1	-26.1%		18.4 µM [falling, single point]
Cc1cccc(NC(=O)C2(C)CC3c4ccccc4C2c2ccccc23)c1 (stereo not given)	-30.9%	29.1 µM [falling, single point]	
Cc1nn(CC(=O)Nc2ccc(F)cc2)c(=O)c2ccccc12	-26.2%		
Cn1nc(C(=O)Nc2nc3ccccc3[nH]2)ccc1=O	-28.7%		
CCOc1ccc(N(CC(=O)NCc2ccccc2Cl)S(=O)(=O)c2c(C)noc2C)cc1	-6.13%		29.1 µM [falling, single point]
Cc1cc(NC(=O)c2cc(CC(C)C)on2)no1	-29.1%	3.26 µM [falling, full curve, poor fit]	6.51 µM [falling, single point]
CCN=c1sc(C(=O)NCCc2ccccc2)cc(=O)n1CC	-27.8%		9.2 µM [falling, partial curve]
CCOc1ccccc1NC(=O)Nc1ccc(Cl)cc1	-22.7%		0.0326 µM [rising, full curve, poor fit]
C[C@H](NC(=O)OC(C)(C)C)C(=O)NCC1CCC(C(=O)N[C@@H](Cc2ccccc2)C(=O)O)CC1 (stereo not given in full)	34.6%	32.6 µM [rising, partial curve, poor fit]	0.411 µM [rising, full curve, poor fit]
CC1CCCCN1C(=O)CN1C(=O)c2ccccc2S1(=O)=O (stereo not given)	-14.9%		32.6 µM [rising, single point]
O=C(COc1cccc(Cl)c1)N/N=C\c1cc2ccccc2nc1Cl		1.03 µM [rising, partial curve]	1.84 µM [rising, partial curve]
COc1ccc(NC(=O)NCc2ccccc2F)cc1OC	6.75%		
COc1ccc(CCC(=O)NCCS(=O)(=O)N2CCN(c3ccccc3OC)CC2)cc1			6.51 µM [falling, single point]
CCOC(=O)CSc1nc2cc(C(=O)NCc3ccco3)ccc2c(=O)n1-c1ccc(F)cc1		6.51 µM [falling, single point]	6.51 µM [falling, single point]
COCC(=O)N(Cc1cc2cc(OC)ccc2[nH]c1=O)c1ccccc1OC	-1.76%		29.1 µM [falling, single point]
CN1c2ccccc2Sc2cc(N)ccc21	-43.2%	18.4 µM [falling, single point]	29.1 µM [falling, single point]
CN(C)c1nc(Oc2ccc(=O)n(C)n2)nc(N2CCOCC2)n1	-135%	23.1 µM [falling, single point]	
O=c1ccc(-c2ccccc2)nn1Cc1ccc(F)cc1Cl	-12.1%	0.00461 µM [falling, full curve, poor fit]	
